Our source for the binding values is PMC10453226.

Protein sequences, listed by entry. Tags and fused reporters are not part of them.
UniProt O75475: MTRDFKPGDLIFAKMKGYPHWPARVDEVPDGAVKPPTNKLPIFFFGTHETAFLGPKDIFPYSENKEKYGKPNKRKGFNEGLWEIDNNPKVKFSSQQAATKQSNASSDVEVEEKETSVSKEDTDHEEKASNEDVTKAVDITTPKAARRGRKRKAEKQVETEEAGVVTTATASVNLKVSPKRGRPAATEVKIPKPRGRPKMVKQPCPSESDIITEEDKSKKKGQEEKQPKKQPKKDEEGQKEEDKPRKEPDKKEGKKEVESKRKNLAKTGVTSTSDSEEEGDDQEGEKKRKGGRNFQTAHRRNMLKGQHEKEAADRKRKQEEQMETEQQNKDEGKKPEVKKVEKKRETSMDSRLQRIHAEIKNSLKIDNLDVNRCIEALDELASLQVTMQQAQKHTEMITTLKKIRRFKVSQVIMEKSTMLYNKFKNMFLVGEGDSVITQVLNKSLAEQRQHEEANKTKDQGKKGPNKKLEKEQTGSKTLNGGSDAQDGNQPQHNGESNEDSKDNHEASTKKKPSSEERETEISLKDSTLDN
UniProt P11387: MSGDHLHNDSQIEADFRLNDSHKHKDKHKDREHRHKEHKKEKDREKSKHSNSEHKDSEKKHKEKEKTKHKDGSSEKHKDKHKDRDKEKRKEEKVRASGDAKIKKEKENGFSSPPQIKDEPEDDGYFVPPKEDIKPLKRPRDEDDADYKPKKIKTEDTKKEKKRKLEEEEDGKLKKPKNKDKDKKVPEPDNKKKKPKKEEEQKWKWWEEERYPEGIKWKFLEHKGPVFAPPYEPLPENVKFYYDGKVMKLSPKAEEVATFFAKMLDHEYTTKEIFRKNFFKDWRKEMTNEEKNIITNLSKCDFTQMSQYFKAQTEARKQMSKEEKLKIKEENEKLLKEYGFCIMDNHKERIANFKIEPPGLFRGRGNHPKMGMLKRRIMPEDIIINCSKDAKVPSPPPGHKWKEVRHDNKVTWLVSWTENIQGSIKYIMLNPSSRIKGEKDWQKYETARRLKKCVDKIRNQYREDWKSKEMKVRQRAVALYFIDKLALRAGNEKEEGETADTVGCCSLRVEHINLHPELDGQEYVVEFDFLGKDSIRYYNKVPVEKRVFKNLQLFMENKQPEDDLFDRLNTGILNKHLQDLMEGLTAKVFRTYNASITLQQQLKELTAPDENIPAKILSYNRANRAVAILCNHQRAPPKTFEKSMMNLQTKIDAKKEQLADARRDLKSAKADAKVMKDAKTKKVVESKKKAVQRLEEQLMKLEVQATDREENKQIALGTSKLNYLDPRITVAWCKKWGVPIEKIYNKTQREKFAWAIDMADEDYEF
UniProt P04150: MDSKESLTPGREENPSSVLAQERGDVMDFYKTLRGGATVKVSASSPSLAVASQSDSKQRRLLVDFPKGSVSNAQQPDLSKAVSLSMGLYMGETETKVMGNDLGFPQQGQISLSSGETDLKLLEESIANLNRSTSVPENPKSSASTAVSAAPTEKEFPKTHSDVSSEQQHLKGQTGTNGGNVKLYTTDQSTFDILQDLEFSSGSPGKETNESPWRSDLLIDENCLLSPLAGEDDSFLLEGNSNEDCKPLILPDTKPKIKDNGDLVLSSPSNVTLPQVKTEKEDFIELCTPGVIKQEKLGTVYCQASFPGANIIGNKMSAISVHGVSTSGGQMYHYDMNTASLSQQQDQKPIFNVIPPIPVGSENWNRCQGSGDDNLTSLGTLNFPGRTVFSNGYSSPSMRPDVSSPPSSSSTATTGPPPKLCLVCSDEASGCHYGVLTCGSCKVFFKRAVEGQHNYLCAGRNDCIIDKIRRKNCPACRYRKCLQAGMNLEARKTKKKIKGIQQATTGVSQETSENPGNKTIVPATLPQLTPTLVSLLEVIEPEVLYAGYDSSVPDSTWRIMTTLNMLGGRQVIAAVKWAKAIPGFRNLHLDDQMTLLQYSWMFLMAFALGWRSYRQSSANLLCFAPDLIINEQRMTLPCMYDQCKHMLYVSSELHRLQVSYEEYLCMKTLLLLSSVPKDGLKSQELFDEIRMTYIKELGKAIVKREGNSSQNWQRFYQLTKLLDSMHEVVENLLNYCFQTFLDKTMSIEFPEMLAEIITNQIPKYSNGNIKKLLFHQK

Results are given in words; binding and its absence hold for the method and conditions named. In cells and extracts the contact can be indirect. Some entries that bind do so weakly or less than the wild type.

For this experiment, the target named is Lens epithelium-derived growth factor p75 (human (endogenous in PC3-DR, DU145-DR, 22Rv1-DR)) (UniProt O75475). Briefly: co-IP; endogenous LEDGF/p75 precipitated from whole cell lysates (500 μg soluble protein, non-denaturing lysis buffer) of PC3-DR, DU145-DR and 22Rv1-DR cells with human anti-LEDGF/p75 autoantibodies (1:100) and protein A/G Sepharose, overnight at 4 °C; normal human serum as negative control; cells grown in normal medium with glucocorticoids; in DU145-DR also with and without DNase I treatment of the lysate (15 min); detection by immunoblot. (In general: In western blotting, separated proteins are transferred to a membrane and probed.)

As for “DNA topoisomerase I (from UniProt P11387 1-765)”, the binding entry is on record as “no binding”.
Consider “Glucocorticoid receptor (from UniProt P04150 1-777)”, for which the binding entry is on record as “binds”.
